# Reference: PubChem BioAssay AID1347075 (National Center for Advancing Translational Sciences (NCATS), 2019)
# In all, about 400,000 compounds went through this assay and about 5,500 (1.4%) were called active. The inconclusive results got no clear call from the source; some entries with a clear call stand among them for comparison. Calls come from the whole dose curve; as a rule, active = well fitted cell-killing curve with a large enough effect; inconclusive = small, poorly fitted or top-dose-only effect, or effect the other way; inactive = flat fitted curve, though single readings scatter. Potencies of inconclusive entries are doubtful fits and often do not repeat.
# Assay: qHTS assay for MDR1-selective chemotherapeutics: Primary screen using the parental adenocarcinoma cell KB-3-1; note: nearly all actives have a fitted effect of over 60% in size
# Conditions: KB-3-1 viability, CellTiter-Glo ATP luminescence, 72 h; activity change, negative = cytotoxic: at 46.1 µM (top of the series)
# Outline: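 KB-3-1 parental drug-naive adenocarcinoma cells in DMEM/10% FBS, incubated 72 h at 37 C with pin-transferred compounds across a concentration series. Viability by CellTiter-Glo luminescence; concentration-response curves fitted after normalization.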
# % is set by controls: 0 for no effect and ±100 for the full control effect; potency is the fitted concentration of half-maximal effect.
Structure (SMILES),Potency,"activity change, negative = cytotoxic"
COc1ccc(/C=C/C(=O)c2ccc(C)c([N+](=O)[O-])c2)cc1O,"inconclusive: 29.1 µM [cytotoxic, single point]",
CCOc1ccc(Nc2nc(NCC3CCCO3)c3ccccc3n2)cc1 (stereo not drawn),"inconclusive: 23.1 µM [cytotoxic, single point]",
CCOC(=O)c1cc(-c2ccc(OC)c(S(=O)(=O)Nc3ccc(OC)cc3OC)c2)on1,inactive,
COc1ccc(-c2ccc(CCC(=O)O)n2-c2cc(OC)ccc2OC)cc1,"inconclusive: 29.1 µM [cytotoxic, single point]",
COC(=O)c1sccc1S(=O)(=O)N1CCN(c2ccccc2OC)CC1,inactive,
CCC1=Nc2cc(C(=O)NCc3ccco3)ccc2Sc2ccccc21,active: 2.59 µM,
COc1ccc(C)cc1NC(=O)CCCNC(=O)Cn1cnc2sc(C)c(C)c2c1=O,"inconclusive: 16.4 µM [rising, partial curve, poor fit]",
COc1ccc(NC(=O)/C(C#N)=C\C=C\c2ccco2)cc1,active: 7.31 µM,
O=C1c2ccccc2C(=O)c2c1ccc1c(=O)n(C3CCCCC3)[nH]c21,"inconclusive: 0.651 µM [rising, partial curve, poor fit]",
O=C(CSc1ccccc1)N/N=C/c1ccccc1O,inactive,
COc1ccc(-c2csc3ncnc(Sc4nnnn4C)c23)cc1,"inconclusive: 9.2 µM [cytotoxic, partial curve]",
O=C1ON=C(c2ccccc2)/C1=C/c1ccco1,"inconclusive: 18.4 µM [cytotoxic, single point]",
Cc1ccccc1N1C(=O)CN(Cc2sccc2C)C1=S,"inconclusive: 13 µM [cytotoxic, partial curve, poor fit]",
O=C(O)c1cccc(S(=O)(=O)N2CCCC2)c1,"inconclusive: 18.4 µM [cytotoxic, single point]",
Cc1cccc(NC(=O)Nc2ccc3c(c2)N(C)C(=O)CS3)n1,"inconclusive: 3.26 µM [rising, full curve, poor fit]",
CCc1ccccc1NC(=O)c1ccc(-n2c(C)ccc2C)cc1,"inconclusive: 29.1 µM [cytotoxic, single point]",
COc1ccc(-c2ccc3c(N)c(C(=O)c4cccc(OC)c4)sc3n2)cc1,"inconclusive: 20.6 µM [cytotoxic, partial curve, poor fit]",
CCCCC[C@@H](C)N1C[C@H](COCc2ccccc2)Oc2cc(N3CC[C@@H](O)C3)ccc2S1(=O)=O,"inconclusive: 29.1 µM [cytotoxic, single point]",
Cc1ccc2c(c1)[C@H]1[C@H](CO2)[C@H](c2ccccc2)[C@]2(C)C(=O)Nc3ccc(F)cc3C(=O)N12,"inconclusive: 29.1 µM [cytotoxic, single point]",
Cc1ccc(NC(=O)COc2ccc(N(C)C(=O)C(C)(C)C)cc2)cc1S(=O)(=O)N1CCCCC1,active: 16.4 µM,
COc1ccc(/C=C/c2ccccn2)cc1,active: 23.1 µM,
Cc1cccc2nc(CSc3nnnn3-c3ccccc3)cn12,inactive,
CCN(CC)S(=O)(=O)c1ccc(N2CC(C(=O)Nc3cccc(C(=O)NC4CC4)c3)CC2=O)cc1 (stereo not drawn),inactive,

# Some values from the results shown.
# Potency, Cc1ccc2c(c1)[C@H]1[C@H](CO2)[C@H](c2ccccc2)[C@]2(C)C(=O)Nc3ccc(F)cc3C(=O)N12 is entered as inconclusive: 29.1 µM [cytotoxic, single point]
# Potency, COC(=O)c1sccc1S(=O)(=O)N1CCN(c2ccccc2OC)CC1 is entered as inactive
# Potency, O=C(O)c1cccc(S(=O)(=O)N2CCCC2)c1 is entered as inconclusive: 18.4 µM [cytotoxic, single point]
# Potency, O=C1ON=C(c2ccccc2)/C1=C/c1ccco1 is entered as inconclusive: 18.4 µM [cytotoxic, single point]
# Potency, COc1ccc(/C=C/c2ccccn2)cc1 is entered as active: 23.1 µM

# (next part)

Structure (SMILES),Potency,"activity change, negative = cytotoxic"
CCOC(=O)Cn1nc(C)n(-c2c(C)cccc2C)c1=O,inactive,
COc1cc(/C=N/O)cc(Br)c1OS(=O)(=O)c1ccc(C)cc1,"inconclusive: 18.4 µM [cytotoxic, single point]",
Cc1ccc(NC(=O)CSc2nc(=O)n(CCN3CCOCC3)c3c2CCCC3)cc1,"inconclusive: 29.1 µM [rising, single point]",
COC(=O)c1scc(C)c1NS(=O)(=O)c1ccc(NC(C)=O)cc1,inactive,
COc1ccc(-c2cccc(NS(=O)(=O)c3cc(C)c(OC)c(C)c3C)c2)nn1,active: 3.66 µM,
Cc1cc(NC(=O)c2ccccc2-c2ccccc2C(=O)O)no1,"inconclusive: 3.66 µM [rising, partial curve, poor fit]",
O=C(N/N=C(\c1ccccc1)c1cccnc1)c1cccc(F)c1,"inconclusive: 1.3 µM [cytotoxic, full curve, poor fit]",
COc1ccc(CCNC(=O)[C@H](C)N2C(=O)N3CCc4c([nH]c5ccccc45)[C@@]3(C)C2=O)cc1,"inconclusive: 13 µM [cytotoxic, partial curve, poor fit]",
COc1ccc(/C=N/NC(=O)c2ccncc2)c(C(=O)O)c1OC,inactive,
Cc1ccc(S(=O)(=O)N2CCOCC2)cc1NC(=O)CSc1nnc(NC2CC2)s1,inactive,
O=C(CC(c1cccs1)N1Cc2ccccc2C1=O)Nc1ccc(F)c(Cl)c1 (stereo not drawn),inactive,
CC(CNC(=O)Cn1ccc2cc(S(=O)(=O)N3CCCCCC3)ccc21)c1ccccc1 (stereo not drawn),"inconclusive: 7.31 µM [cytotoxic, partial curve]",
COc1ccc(Cl)cc1NC(=O)CN(C)S(=O)(=O)c1ccc2c(c1)CCCN2C(C)=O,"inconclusive: 25.9 µM [cytotoxic, single point]",
O=C1C2CC=CCC2C(=O)N1c1ccc(OCC(O)Cn2nnc3ccccc32)cc1 (stereo not drawn),"inconclusive: 20.6 µM [cytotoxic, single point]",
CCc1ccc(-c2nc(CN3CCCC(C(=O)N4CCN(c5cc(Cl)ccc5C)CC4)C3)c(C)o2)cc1 (stereo not drawn),"inconclusive: 18.4 µM [cytotoxic, single point]",
CC1(C(=O)NCc2ccccc2Br)CCN1C(=O)CCc1ccc(Cl)cc1Cl (stereo not drawn),"inconclusive: 29.1 µM [cytotoxic, single point]",
COc1ccc(C2=NN(c3ccccc3)C(c3ccc(OC)c(OC)c3)C2)cc1 (stereo not drawn),"inconclusive: 29.1 µM [cytotoxic, single point]",
O=C(C1CCN(c2nnc(-n3cccc3)s2)CC1)N1CCc2ccccc2C1,,inconclusive: -30.9% [cytotoxic]
CCN(C(=S)Nc1ccc(Oc2ccccc2)cc1)c1ccccc1,inactive,
CCCNC(=O)C(Cc1ccc(C(F)(F)P(=O)(OCC)OCC)cc1)NC(=O)c1ccc(C#N)cc1 (stereo not drawn),inactive,
O=S1(=O)N=C(N2CCOCC2)c2ccccc21,"inconclusive: 29.1 µM [rising, single point]",
Cc1cccnc1NC(=O)CCCNC(=O)c1ccc(Cl)cc1,inactive,
c1ccc2c(c1)nc(NCc1ccc3c(c1)OCO3)n2CCN1CCOCC1,inactive,

Structure (SMILES),Potency,"activity change, negative = cytotoxic"
Cc1ccccc1Cn1c(=O)n(CCc2ccccc2)c(=O)c2c(C)c(C)sc21,inactive,
CCCCCCN1C[C@@H](n2cc(-c3ccc(F)cc3)nn2)[C@H](O)C[C@@H]1c1ccc(OC)cc1,"inconclusive: 29.1 µM [cytotoxic, partial curve, poor fit]",
COc1ccccc1Cc1c(-c2cccc(Cl)c2)nc2ccc(C)cn12,"inconclusive: 29.1 µM [cytotoxic, single point]",
CC(C)Cc1cc(C(=O)N2CCCC(CO)(Cc3ccc(F)cc3)C2)no1 (stereo not drawn),inactive,
Cc1csc(N/N=C/c2ccccn2)n1,"inconclusive: 32.6 µM [cytotoxic, single point]",
O=C(c1ccccc1)c1ccc2cc(O)ccc2c1,"inconclusive: 29.1 µM [cytotoxic, single point]",
Cc1ccc(NC(=O)C2CCN(S(=O)(=O)c3ccc4c(c3)OCCCO4)CC2)nc1,active: 16.4 µM,
COc1ccc(C(=O)NNC(=O)c2cccs2)cc1S(=O)(=O)N1CCOCC1,"inconclusive: 20.6 µM [cytotoxic, single point]",
CC(C)[C@H](NC(=O)C1CCN(S(=O)(=O)c2ccc(F)cc2)CC1)C(=O)NCc1ccncc1,,inconclusive: 9.31%
CCc1cc2c(C)ccc(C)c2nc1SCC(=O)Nc1c(C)[nH]c(=O)[nH]c1=O,"inconclusive: 16.4 µM [rising, single point]",
Cn1c(=O)c2c(nc(NCc3ccccc3)n2CCCc2ccccc2)n(C)c1=O,"inconclusive: 18.4 µM [cytotoxic, single point]",
Cc1ccc(S(=O)(=O)N(C)Cc2nc(-c3ccncc3)no2)cc1,"inconclusive: 32.6 µM [cytotoxic, partial curve, poor fit]",
Nc1ccc(-c2cc(-c3cccc(N)c3)nc(-c3ccccc3)n2)cc1,"inconclusive: 14.6 µM [rising, partial curve, poor fit]",
CN(C)c1ccc(C2Nc3cccc4cccc(c34)N2)cc1,"inconclusive: 29.1 µM [cytotoxic, single point]",
O=C(CCn1ccc2cc(S(=O)(=O)N3CCCC3)ccc21)NCc1cccc(F)c1,"inconclusive: 29.1 µM [cytotoxic, single point]",
O=C(C[n+]1cc(-c2ccccc2)n2c1CCCCC2)c1ccc(Cl)cc1,"inconclusive: 23.1 µM [cytotoxic, single point]",
COC(=O)CSc1nc(-c2ccc(F)cc2)cc(C(F)(F)F)n1,,inconclusive: 8.59%
COc1ccc(NC(=S)Nc2cnc3ccccc3c2)c(OC)c1,"inconclusive: 8.2 µM [rising, partial curve, poor fit]",
COCC(=O)OC1CCn2c1nc1c2C(=O)C(C)=C(NC(C)=O)C1=O (stereo not drawn),"inconclusive: 29.1 µM [cytotoxic, single point]",
Cc1cccc(NC(=S)N=Nc2c(O)n(CN3CCOCC3)c3ccccc23)c1C,"inconclusive: 20.6 µM [cytotoxic, single point]",
CC(C)c1cccc(-c2csc(C(C)(O)c3ccc(F)c(F)c3)n2)c1 (stereo not drawn),"inconclusive: 29.1 µM [cytotoxic, single point]",
Cc1ccc(CNc2ncnc3[nH]ncc23)o1,"inconclusive: 25.9 µM [cytotoxic, single point]",
